Screen size: about 400,000 compounds; about 13,000 (3.2%) were called active. The shares of active, inactive and inconclusive entries below differ from those in the screen. Calls come from the whole dose curve; as a rule, active = well fitted cell-killing curve with a large enough effect; inconclusive = small, poorly fitted or top-dose-only effect, or effect the other way; inactive = flat fitted curve, though single readings scatter. Where the call is inconclusive, the potency comes from a doubtful curve fit.
Assay: qHTS assay for MDR1-selective chemotherapeutics: Primary screen using the drug-selected MDR subline cells KB-V1; note: nearly all actives have a fitted effect of over 60% in size
Conditions: KB-V1 MDR cells viability, CellTiter-Glo, 72 h; activity change, negative = cytotoxicity: at 46.1 µM (top of the series)
In short: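 Readout: CellTiter-Glo luminescence, 10 min after addition. Cells: KB-V1 MDR subline, 72 h at 37 degrees C with compound. Analysis: corrected, normalized data fitted to concentration-effect curves.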
With `CC(C)(C)OC(=O)[C@H](Cc1ccccc1)NC(=O)c1[nH]cnc1C(=O)Nc1cccc(Cl)c1` the Potency was inconclusive: 25.9 µM [cytotoxic, single point]. With `Cc1c(Cc2ccccc2)c(=O)oc2c(C)c(OC(C)C(=O)N[C@@H](Cc3ccccc3)C(=O)O)ccc12` (stereo partly drawn) the Potency was “inactive”. In the case of `Cc1nnc2c(N3CCN(c4ccc(F)cc4)CC3)nc3ccc(C(=O)c4ccccc4)cc3n12`, the Potency is reported as “inactive”. For `Clc1ccc(-c2nnc(NCc3ccccc3)c3ccccc23)cc1`, the Potency was inconclusive: 32.6 µM [cytotoxic, single point]. In the case of `CC(C)(C)c1ccc(OCCCC(=O)Nc2cccc(S(=O)(=O)N3CCOCC3)c2)cc1`, the Potency is reported as inconclusive: 29.1 µM [cytotoxic, single point]. With `CCCCN=C(N)/C(C(=O)OCC)=C(\O)c1ccc(OC)cc1` the Potency was inconclusive: 18.4 µM [cytotoxic, single point]. With `COc1cccc2c1OC[C@@H](CO)[C@H]2N(C)C(=O)Nc1ccc(Cl)cc1` the Potency was active: 14.6 µM. In the case of `CCOc1ccccc1N(C(=O)c1snc(C(N)=O)c1N)C(C(=O)NCCC(C)C)c1ccco1` (stereo not drawn), the Potency is reported as active: 13 µM. In the case of `O=C(Nc1ccc(Oc2cccnc2)nc1)c1ccc(C(F)(F)F)cc1`, the Potency is reported as inconclusive: 25.9 µM [cytotoxic, single point]. For `Cc1csc(NC(=O)c2ccc(N3CCCC3=O)cc2)n1`, the activity change, negative = cytotoxicity was inconclusive: -55.6% [cytotoxic]. For `Cc1ccccc1C(=O)OCc1cc(=O)n2nc(C3CCCCC3)sc2n1`, the Potency was “inactive”. With `CCn1c(SCC(=O)Nc2nccs2)nnc1-c1ccccc1` the Potency was inconclusive: 23.1 µM [cytotoxic, single point]. In the case of `COc1ccc(CNc2nc3c(c(=O)n(Cc4ccc(Br)cc4)c(=O)n3C)n2C)cc1`, the Potency is reported as active: 9.2 µM. With `O=C(/C=C/c1ccc2c(c1)OCO2)c1cccnc1` the Potency was “inactive”. For `C/C(=N\OC(=O)c1c(-c2c(F)cccc2Cl)noc1C)c1nccs1`, the Potency was “inactive”. With `CC1CCN(CCCNS(=O)(=O)c2cc(Br)cc3c2N(C(=O)C2CC2)CC3)CC1` the Potency was inconclusive: 32.6 µM [cytotoxic, partial curve, poor fit]. For `N#Cc1ccccc1NC(=O)COc1ccccc1C(=O)Nc1ccccc1`, the Potency was “inactive”. For `COc1ccc(C)cc1N(C(=O)c1cccc(F)c1)c1nc2ccccc2s1`, the Potency was “inactive”. With `COc1ccc(Cl)cc1NC(=O)CN(C)CC(=O)N(CC(C)C)c1c(N)n(CC(C)C)c(=O)[nH]c1=O` the activity change, negative = cytotoxicity was inconclusive: 34.2%. In the case of `CCCCN(C(=O)CSc1nc2ccccc2s1)c1c(N)n(CCCC)c(=O)[nH]c1=O`, the Potency is reported as inconclusive: 29.1 µM [rising, single point]. In the case of `Cc1nc(C)c(C(=O)N2CCCC(C(=O)c3cc(F)ccc3F)C2)s1` (stereo not drawn), the Potency is reported as inconclusive: 23.1 µM [cytotoxic, single point]. For `COc1ccc(-c2onc(C)c2C)cc1S(=O)(=O)Nc1cccc(C#N)c1`, the Potency was inconclusive: 32.6 µM [cytotoxic, single point]. For `O=C1/C(=C/c2cccnc2)SC(=S)N1Cc1ccco1`, the Potency was active: 20.6 µM. With `COc1ccccc1NC1=C(N2CCCCC2)C(=O)c2ccccc2C1=O` the Potency was “inactive”. With `COc1ccc([C@H]2N[C@]3(CCCN(Cc4ccc(Cl)cc4)C3=O)[C@H]3C(=O)N(Cc4ccccc4)C(=O)[C@@H]23)cc1` the Potency was inconclusive: 32.6 µM [rising, single point]. With `O=S(=O)(Nc1nc2ccccc2nc1N1CCc2ccccc2C1)c1ccc(Cl)cc1` the Potency was active: 14.6 µM. For `CSCCC(NC(=O)COc1ccccc1)C(=O)N(C)CC(=O)Nc1ccc(C)cc1` (stereo not drawn), the Potency was active: 16.4 µM. For `CCN(CC)CCSc1nc2c([nH]1)c(=S)n(C)c(=O)n2C`, the Potency was “inactive”. With `COc1ccc(Nc2cc(C)c3c(O)cccc3n2)cc1` the Potency was inconclusive: 9.2 µM [cytotoxic, partial curve, poor fit]. In the case of `Nc1ccc2c(c1)N=[N+]([O-])c1cc(N)ccc1C2`, the activity change, negative = cytotoxicity is reported as inconclusive: -15.7%. In the case of `O=C(c1cccs1)N1CCN(c2ncc(Br)cn2)CC1`, the Potency is reported as “inactive”. For `COC(=O)c1ccc(OCC2c3cc(OC)c(OC)cc3CCN2C(C)=O)cc1` (stereo not drawn), the Potency was inconclusive: 7.31 µM [cytotoxic, partial curve]. In the case of `CCOc1ccc(CNC(=O)CCCC(=O)n2nc(C)c3ccccc32)cc1`, the Potency is reported as inconclusive: 29.1 µM [rising, single point]. With `CCOc1ccc(C(=O)NCC(c2ccc(Cl)cc2)N2CCCCC2)cc1` (stereo not drawn) the Potency was “inactive”. With `Cc1ccc(S(=O)(=O)N2CCOCC2)cc1C(=O)N1CCc2ccccc21` the Potency was “inactive”. In the case of `CCOC(=O)CSc1nc2cc(C)ccc2cc1C#N`, the Potency is reported as inconclusive: 23.1 µM [cytotoxic, single point]. In the case of `C[C@@H]1CN([C@@H](C)CO)C(=O)CCCn2nncc2CO[C@@H]1CN(C)C(=O)OCc1ccccc1`, the Potency is reported as “inactive”. With `NS(=O)(=O)c1cccc(NC(=O)COC(=O)c2ccccc2SCC(=O)N2CCCC2)c1` the Potency was “inactive”. In the case of `CCSc1ccccc1C(=O)N1CCN(Cc2ccc3c(c2)OCO3)CC1`, the Potency is reported as active: 18.4 µM. For `Cn1c(=O)c2[nH]c(C3CCCC3)nc2n(C)c1=O`, the Potency was “inactive”. For `CCCCN1C(=O)C(O)(CC(=O)c2c(C)n[nH]c2C)c2cc(Br)ccc21` (stereo not drawn), the Potency was inconclusive: 23.1 µM [cytotoxic, partial curve, poor fit]. With `CC(C)N(C(=O)Cn1cnc2c(cnn2-c2ccccc2Cl)c1=O)C(C)C` the Potency was inconclusive: 16.4 µM [cytotoxic, partial curve]. With `COc1cc(NC(=O)N2CCc3nc(NCc4cccc(Oc5ccccc5)c4)ncc3C2)cc(OC)c1OC` the Potency was inconclusive: 16.4 µM [cytotoxic, single point]. In the case of `Cc1ccc(C)c(N2CCN(S(=O)(=O)c3ccc(-c4cnc(C5CC5)o4)cc3)CC2)c1`, the Potency is reported as inconclusive: 20.6 µM [cytotoxic, single point]. In the case of `CCC(C)NC(=O)CSc1nc2c(sc(=S)n2-c2cc(Cl)ccc2OC)c(=O)[nH]1` (stereo not drawn), the Potency is reported as inconclusive: 18.4 µM [cytotoxic, single point]. With `Cc1noc(C)c1COC(=O)c1ccc(S(=O)(=O)NCc2ccco2)cc1` the Potency was “inactive”. In the case of `Cc1ccccc1NC(=S)NC(=O)c1cncc(Br)c1`, the Potency is reported as inconclusive: 16.4 µM [rising, partial curve, poor fit]. With `Cn1c(SCc2c(F)cccc2Cl)nc2c(c1=O)SCC2` the Potency was inconclusive: 14.6 µM [cytotoxic, partial curve]. With `O=C(NCc1ccncc1)c1cccc(S(=O)(=O)N2CCc3ccccc32)c1` the Potency was inconclusive: 29.1 µM [cytotoxic, single point]. In the case of `Cc1ccc(-c2nc(C)sc2CC(=O)OCC(=O)Nc2ccc(F)c(Cl)c2)cc1`, the Potency is reported as “inactive”. With `O=C(/C=C/Sc1ccccc1)c1ccc(Cl)cc1` the Potency was “inactive”. In the case of `COc1ccc(CN(C(=O)c2ccco2)c2ccc(Br)cc2)cc1OC`, the Potency is reported as inconclusive: 23.1 µM [cytotoxic, partial curve]. For `O=C(Cn1ncc2c3ccccc3n(Cc3cccc(Cl)c3)c2c1=O)NCCCN1CCCCC1`, the Potency was inconclusive: 20.6 µM [rising, partial curve]. In the case of `OCCc1c[nH]c2ccc(C(F)(F)F)cc12`, the Potency is reported as inconclusive: 29.1 µM [rising, single point]. For `CSc1nsc(SCc2ccc(F)cc2)n1`, the Potency was inconclusive: 11.6 µM [rising, partial curve]. In the case of `Cc1ccccc1S(=O)(=O)Nc1nc2ccccc2nc1Cl`, the Potency is reported as “inactive”. For `COC(=O)c1cc(CSc2nc3ccc(C)cc3[nH]2)oc1C`, the Potency was inconclusive: 11.6 µM [cytotoxic, single point]. For `O=C(NCCc1ccccc1)C1CCN(Cc2cc3ccccc3n2Cc2ccccc2)CC1`, the Potency was “inactive”. In the case of `O=[N+]([O-])c1ccc(/C=C2\CCC(C3=CCCC3)=C2N2CCOCC2)cc1`, the Potency is reported as inconclusive: 9.2 µM [cytotoxic, partial curve]. For `Cc1ccnc(NC(=O)CCC(=O)N(CC(=O)NCc2ccccc2)c2ccc3c(c2)OCO3)c1`, the Potency was inconclusive: 11.6 µM [cytotoxic, partial curve]. For `CCN(CC(=O)Nc1sc2c(c1C#N)CCCC2)Cc1nc2ccccc2c(=O)[nH]1`, the Potency was inconclusive: 6.51 µM [cytotoxic, partial curve]. With `Cc1ccc(C)c(N2CCN(C(=O)C3CCN(c4nc(C)cc(C)n4)CC3)CC2)c1` the Potency was active: 3.66 µM. In the case of `CC(Oc1cc2oc(=O)c3c(c2cc1Cl)CCC3)C(=O)NCc1ccccn1` (stereo not drawn), the Potency is reported as inconclusive: 6.51 µM [cytotoxic, full curve]. With `COc1ccccc1-c1c(C)c(C)nc(N)c1C#N` the Potency was “inactive”. With `C/C(=N\NC(=O)COc1ccccc1-c1ccccc1)c1cccnc1` the Potency was inconclusive: 7.31 µM [cytotoxic, partial curve]. For `CC(CC(=O)Nc1cccnc1)c1ccccc1` (stereo not drawn), the Potency was “inactive”. In the case of `Cc1ccc(C(=O)OCC(=O)Nc2ccc(Cl)cn2)s1`, the Potency is reported as inconclusive: 18.4 µM [rising, single point]. In the case of `CCC(CC)C(=O)N1N=C(c2ccc(NS(C)(=O)=O)cc2)CC1c1ccccc1` (stereo not drawn), the Potency is reported as inconclusive: 18.4 µM [cytotoxic, partial curve]. In the case of `CC1(C(=O)NCc2ccco2)Cc2c(-c3cccc(C(F)(F)F)c3)ccnc2O1` (stereo not drawn), the Potency is reported as inconclusive: 4.11 µM [cytotoxic, full curve]. With `O=C(NCCCNC1CCCCC1)c1ccc(/C=N/O)nc1` the Potency was “inactive”. For `COc1ccccc1-n1c(N)c(C(=O)NCC2CCCO2)c2nc3ccccc3nc21` (stereo not drawn), the Potency was “inactive”. For `S=C(Nc1ccccc1Cl)N(CCCN1CCOCC1)Cc1ccccn1`, the Potency was inconclusive: 8.2 µM [cytotoxic, partial curve, poor fit]. For `COCc1cc(CN2CCN(C)CC2)c(O)c2ncccc12`, the Potency was active: 3.66 µM.

Source: PubChem BioAssay AID1347076 (National Center for Advancing Translational Sciences (NCATS), 2019)
% is set by controls: 0 for no effect and ±100 for the full control effect; potency is the fitted concentration of half-maximal effect.
